Laboratory results published in paper PMC7720213, “Structure of eukaryotic DNA polymerase δ bound to the PCNA clamp while encircling DNA” (Proceedings of the National Academy of Sciences of the …, 2020).
Results are given in words; binding and its absence hold for the method and conditions named. Some entries that bind do so weakly or less than the wild type. For some assays here: Sequences can lack the tags named with a protein.

By UniProt entry, the sequences of proteins in these tests, tags left out.
UniProt P47110: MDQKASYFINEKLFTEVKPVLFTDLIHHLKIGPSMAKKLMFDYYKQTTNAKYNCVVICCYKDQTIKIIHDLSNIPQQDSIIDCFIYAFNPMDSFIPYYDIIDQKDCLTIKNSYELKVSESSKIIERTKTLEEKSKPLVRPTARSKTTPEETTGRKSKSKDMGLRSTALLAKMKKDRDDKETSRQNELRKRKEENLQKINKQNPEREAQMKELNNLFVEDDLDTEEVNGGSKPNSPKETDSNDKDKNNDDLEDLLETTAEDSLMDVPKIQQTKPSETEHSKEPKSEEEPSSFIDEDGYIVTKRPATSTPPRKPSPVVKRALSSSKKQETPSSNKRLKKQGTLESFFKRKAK

T1: GST-Pol31 of the GST-Pol31-Pol32 complex (S. cerevisiae) (UniProt P46957)
T1 sequence: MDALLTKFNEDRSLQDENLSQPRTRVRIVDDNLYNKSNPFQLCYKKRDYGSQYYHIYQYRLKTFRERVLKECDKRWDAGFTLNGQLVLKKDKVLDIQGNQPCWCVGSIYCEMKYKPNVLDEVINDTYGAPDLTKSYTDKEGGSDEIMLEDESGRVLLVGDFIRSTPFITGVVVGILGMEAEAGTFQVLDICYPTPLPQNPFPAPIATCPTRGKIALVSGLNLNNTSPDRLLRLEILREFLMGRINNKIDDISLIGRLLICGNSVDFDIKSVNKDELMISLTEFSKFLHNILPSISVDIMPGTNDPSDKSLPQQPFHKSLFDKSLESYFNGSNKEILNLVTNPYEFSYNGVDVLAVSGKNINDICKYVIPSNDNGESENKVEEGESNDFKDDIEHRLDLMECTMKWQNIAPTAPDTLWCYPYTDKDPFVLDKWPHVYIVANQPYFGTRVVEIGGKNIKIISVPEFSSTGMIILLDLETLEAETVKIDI

T2: S.c. proliferating cell nuclear antigen (PCNA) sliding clamp (S. cerevisiae), P15873
T2 chain: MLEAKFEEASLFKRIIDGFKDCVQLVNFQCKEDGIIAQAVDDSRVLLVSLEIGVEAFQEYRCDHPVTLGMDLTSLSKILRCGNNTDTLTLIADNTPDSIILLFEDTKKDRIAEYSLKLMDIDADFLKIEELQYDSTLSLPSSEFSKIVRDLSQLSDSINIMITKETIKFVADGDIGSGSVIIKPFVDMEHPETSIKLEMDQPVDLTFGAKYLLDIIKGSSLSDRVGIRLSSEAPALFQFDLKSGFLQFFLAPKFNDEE


How the values were obtained:
[1] = molecular target: T1, GST-Pol31 of the GST-Pol31-Pol32 complex (S. cerevisiae); experiment: affinity co-purification; Pol31 and Pol32 co-expressed in E. coli BL21(DE3); GST-Pol31-Pol32 complex purified from the clarified lysate on glutathione-Sepharose 4B
[2] = molecular target: T2, S.c. proliferating cell nuclear antigen …; experiment: cryo-EM structure; 8.0 uM PCNA and 6.0 uM T/P DNA mixed in Hepes-KOH pH 7.5, DTT, MgAc, KOAc, potassium glutamate, 0.4 mM ddTTP, then 3.3 uM Pol δ added; PCNA:Pol δ:T/P DNA 1.2:1:0.9; on ice 1 h; 3.2 Å map; both purified; details: remark: other sources report otherwise

Row | binding [1] | binding [2] | Molecule
1 | binds | – | Pol32 of the GST-Pol31-Pol32 complex (from UniProt P47110 1-350)
2 | – | no binding | S.c. DNA polymerase δ regulatory subunit Pol31 (natural protein, S. cerevisiae, Pol31 (B subunit), regulatory subunit of Saccharomyces cerevisiae DNA polymerase δ; Stood in the assay as part of the three-subunit Pol δ; also called B subunit) MDALLTKFNEDRSLQDENLSQPRTRVRIVDDNLYNKSNPFQLCYKKRDYGSQYYHIYQYRLKTFRERVLKECDKRWDAGFTLNGQLVLKKDKVLDIQGNQPCWCVGSIYCEMKYKPNVLDEVINDTYGAPDLTKSYTDKEGGSDEIMLEDESGRVLLVGDFIRSTPFITGVVVGILGMEAEAGTFQVLDICYPTPLPQNPFPAPIATCPTRGKIALVSGLNLNNTSPDRLLRLEILREFLMGRINNKIDDISLIGRLLICGNSVDFDIKSVNKDELMISLTEFSKFLHNILPSISVDIMPGTNDPSDKSLPQQPFHKSLFDKSLESYFNGSNKEILNLVTNPYEFSYNGVDVLAVSGKNINDICKYVIPSNDNGESENKVEEGESNDFKDDIEHRLDLMECTMKWQNIAPTAPDTLWCYPYTDKDPFVLDKWPHVYIVANQPYFGTRVVEIGGKNIKIISVPEFSSTGMIILLDLETLEAETVKIDI
